Experimental data reported in paper PMC4117494.

Biological target: Archaeoglobus fulgidus Nop5 lacking the C-terminal charged tail, histidine-tagged (Archaeoglobus fulgidus)
Assay: co-purification after co-expression (Ni-NTA affinity, gel filtration); Af Nop5 (single histidine tag), fibrillarin, L7Ae and sR3 or tRNA-sR3 RNA co-expressed in E. coli Rosetta (DE3); lysate in 25 mM Na2HPO4 pH 7.6, 500 mM NaCl, 10% glycerol heated at 70°C for 30 minutes; Ni-NTA, then Superdex 200; proteins identified by SDS-PAGE (silver stain) and mass spectroscopy

B1: Archaeoglobus fulgidus fibrillarin (protein, UniProt O28192 1-210)
chain: MKELMRNVYLLDDTLVTKSKYGSHYGEKVFDGYREWVPWRSKLAAMILKGHRLKLRGDERVLYLGAASGTTVSHLADIVDEGIIYAVEYSAKPFEKLLELVRERNNIIPLLFDASKPWKYSGIVEKVDLIYQDIAQKNQIEILKANAEFFLKEKGEVVIMVKARSIDSTAEPEEVFKSVLKEMEGDFKIVKHGSLMPYHRDHIFIHAYRF
binding: binds

No constants are given. Whether binding was seen depends on the method and setting. Binding seen in cells or lysates may run through a third protein. A result given as binding can be weak or reduced; the word gives no strength.
